Measured values reported in publication PMC5843676.
No constants are given. Whether binding was seen depends on the method and setting. A result given as binding can be weak or reduced; the word gives no strength. One block for each binder: values may come before it.

Biological target: mutant, constitutively activated human αIIbβ3-P718 integrin on CHO cells (CHO-αIIbβ3-P718) (human)
Experiment: flow cytometry on cells; CHO transfectants with or without 10 nM PMA, incubated 30-60 min with PE-sEng; specificity tested with a tenfold molar excess of unlabeled sEng; parental CHO as control; only the binder purified

binding: binds
B1: phycoerythrin-labeled soluble endoglin (PE-sEng) (domain or fragment, UniProt P17813 26-586)
chain: ETVHCDLQPVGPERGEVTYTTSQVSKGCVAQAPNAILEVHVLFLEFPTGPSQLELTLQASKQNGTWPREVLLVLSVNSSVFLHLQALGIPLHLAYNSSLVTFQEPPGVNTTELPSFPKTQILEWAAERGPITSAAELNDPQSILLRLGQAQGSLSFCMLEASQDMGRTLEWRPRTPALVRGCHLEGVAGHKEAHILRVLPGHSAGPRTVTVKVELSCAPGDLDAVLILQGPPYVSWLIDANHNMQIWTTGEYSFKIFPEKNIRGFKLPDTPQGLLGEARMLNASIVASFVELPLASIVSLHASSCGGRLQTSPAPIQTTPPKDTCSPELLMSLIQTKCADDAMTLVLKKELVAHLKCTITGLTFWDPSCEAEDRGDKFVLRSAYSSCGMQVSASMISNEAVVNILSSSSPQRKKVHCLNMDSLSFQLGLYLSPHFLQASNTIEPGQQSFVQVRVSPSVSEFLLQLDSCHLDLGPEGGTVELIQGRAAKGNCVSLLSPSPEGDPRFSFLLHFYTVPIPKTGTLSCTVALRPKTGSQDQEVHRTVFMRLNIISPDLSGCTSKG
modifications: phycoerythrin label (site not stated)

binding: binds
B2: soluble endoglin (sEng; extracellular domain Glu26-Gly586) (domain or fragment, UniProt P17813 26-586)
chain: B1 chain
